According to publication PMC8436908:
Results are given in words; binding and its absence hold for the method and conditions named. In cells and extracts the contact can be indirect. Some binding calls cover weakened binding; strength is not graded here.

By UniProt entry, the sequences of proteins in these tests, tags left out.
UniProt O35864: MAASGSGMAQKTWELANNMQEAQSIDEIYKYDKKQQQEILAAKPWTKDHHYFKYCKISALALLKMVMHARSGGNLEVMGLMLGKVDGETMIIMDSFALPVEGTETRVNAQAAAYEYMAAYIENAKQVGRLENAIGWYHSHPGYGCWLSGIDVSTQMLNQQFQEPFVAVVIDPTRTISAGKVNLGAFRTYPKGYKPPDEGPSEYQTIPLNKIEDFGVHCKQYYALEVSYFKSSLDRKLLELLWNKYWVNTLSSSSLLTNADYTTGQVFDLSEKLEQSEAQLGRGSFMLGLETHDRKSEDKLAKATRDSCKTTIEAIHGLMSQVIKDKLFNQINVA

Target: T1, prolactin receptor (PRLR) (mouse (endogenous in GT1-7)) (UniProt Q08501)
T1 sequence: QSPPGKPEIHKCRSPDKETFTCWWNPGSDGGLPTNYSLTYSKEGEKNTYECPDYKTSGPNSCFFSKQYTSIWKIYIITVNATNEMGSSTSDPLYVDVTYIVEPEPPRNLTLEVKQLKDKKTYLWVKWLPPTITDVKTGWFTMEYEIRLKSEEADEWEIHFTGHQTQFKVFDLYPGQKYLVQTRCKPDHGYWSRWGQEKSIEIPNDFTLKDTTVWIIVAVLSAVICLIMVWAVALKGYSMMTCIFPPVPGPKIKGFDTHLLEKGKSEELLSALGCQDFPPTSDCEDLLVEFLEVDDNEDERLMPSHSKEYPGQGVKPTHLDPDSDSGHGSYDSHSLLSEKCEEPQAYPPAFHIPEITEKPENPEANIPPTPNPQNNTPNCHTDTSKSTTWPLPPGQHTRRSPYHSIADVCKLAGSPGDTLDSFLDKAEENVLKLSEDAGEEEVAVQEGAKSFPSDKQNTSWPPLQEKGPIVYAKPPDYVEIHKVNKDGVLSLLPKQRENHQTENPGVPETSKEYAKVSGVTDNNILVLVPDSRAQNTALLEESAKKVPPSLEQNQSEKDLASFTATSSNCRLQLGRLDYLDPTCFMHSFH
Test: co-IP; anti-PRLR antibody (IgG as control) added to RIPA lysate of GT1-7 cells at 4 C overnight, captured on protein A/G-agarose, western blot; cells treated for 72 h with blank CSF (Control), 200 ng/mL PRL (HPRL) or PRL + BSZY-D-containing CSF, with 10 uM MG132

binding: binds
Substance: CSN5 (from UniProt O35864 1-334) (enzyme)
